# The list shows a part of the results. Most values come without repeats; read them as rough.
# What was measured:
# [1] = system: MEPP (mouse ovarian epithelium Trp53/Pten KO); experiment: cell viability relative to untreated (fraction); higher = less growth inhibition; conditions: 5 µM; 3 days
# [2] = system: PREPP (mouse prostate epithelium Trp53/Pten KO); experiment: as above; conditions: 5 µM; 3 days
Structure (SMILES),cell viability [1],cell viability [2]
CC1=C[C@H](O)CC(C)(C)[C@H]1/C=C/C(C)=C/C=C/C(C)=C/C=C/C=C(C)/C=C/C=C(C)/C=C/C1=C(C)C[C@@H](O)CC1(C)C,0.934,0.927
O=C(O)c1cn(C2CC2)c2cc(N3CCNCC3)c(F)cc2c1=O,1.06,0.872
NC(=O)[C@@H](N)Cc1c[nH]c2ccccc12,0.845,0.931
O=c1[nH]c(=O)c2nc[nH]c2[nH]1,1.02,0.956
Clc1ccccc1C(c1ccccc1)(c1ccccc1)n1ccnc1,1.29,0.842
CCC/C=C1\OC(=O)C2=C1CCC=C2,1.12,1.01
CCCCCCCC/C=C\CCCCCCCCCCCCCC(=O)O,0.84,0.905
O=c1ccn([C@H]2C[C@H](O)[C@@H](CO)O2)c(=O)[nH]1,0.978,0.915
c1ccc2c(Cc3c[nH]c4ccccc34)c[nH]c2c1,1.07,0.902
O=C1OCCN1/N=C/c1ccc([N+](=O)[O-])o1,1.18,0.816
CC(=O)O[C@H]1CC[C@@]2(C)C(=CC[C@@H]3[C@@H]2CC[C@]2(C)C(c4cccnc4)=CC[C@@H]32)C1,1.07,0.84
O=C(O)c1cccc(Oc2ccccc2)c1,0.985,1.04
CCC/C=C1\OC(=O)C2=C1CCC1C3C=C4C(=O)O/C(=C\CCC)C4(CC3)C21 (stereo not drawn),0.933,0.902
C[N+](C)(C)C[C@H](O)CC(=O)[O-],0.931,0.678
O=c1cc(-c2ccc(O)cc2)oc2c([C@@H]3O[C@H](CO)[C@@H](O)[C@H](O)[C@H]3O)c(O)cc(O)c12,1.86,0.872
OCCc1c[nH]c2ccccc12,0.881,1.02
O=c1[nH]c(=O)c2ccccc2[nH]1,0.897,1.2
NCC(=O)O,0.89,1.02
COc1ccc(-c2cc(=O)c3c(O)cc(O)cc3o2)cc1,1.25,1.03
Cc1c[nH]c(=O)[nH]c1=O,1.17,0.957
COc1cc(NC(C)CCCN)c2ncccc2c1 (stereo not drawn),1.18,0.779
CCCCCCCCCC(=O)O,1.01,1.08
Nc1ccccc1S(=O)(=O)O,0.912,1.21
OC[C@H]1O[C@@H](Oc2cc(O)cc(/C=C/c3ccc(O)cc3)c2)[C@H](O)[C@@H](O)[C@@H]1O,1.36,0.973
Oc1ccc(Cc2nc3c(Cc4ccccc4)nc(-c4ccc(O)cc4)cn3c2O)cc1,1.12,0.936
CC1(C)S[C@@H]2[C@H](NC(=O)[C@H](C(=O)O)c3ccsc3)C(=O)N2[C@H]1C(=O)O,0.971,1.01
C/C=C(\C)C(=O)O[C@@H]1c2c(ccc3ccc(=O)oc23)OC(C)(C)[C@@H]1OC(C)=O,1.14,0.858
Cc1cc(C(=O)O)ccc1O,0.935,1.15
Cn1c(=O)c2c(ncn2CC(O)CO)n(C)c1=O (stereo not drawn),1.01,0.951

# Gathered by group: the entries above with a halogen.
Structure (SMILES),cell viability [1],cell viability [2]
O=C(O)c1cn(C2CC2)c2cc(N3CCNCC3)c(F)cc2c1=O,1.06,0.872
Clc1ccccc1C(c1ccccc1)(c1ccccc1)n1ccnc1,1.29,0.842
